The values below come from publication PMC11446229.

No constants are given. Whether binding was seen depends on the method and setting. Some binding calls cover weakened binding; strength is not graded here.

For assay [1], the target named is T1, SufS, cysteine desulfurase of the SUF system (E. coli) (UniProt P77444).
T1 sequence: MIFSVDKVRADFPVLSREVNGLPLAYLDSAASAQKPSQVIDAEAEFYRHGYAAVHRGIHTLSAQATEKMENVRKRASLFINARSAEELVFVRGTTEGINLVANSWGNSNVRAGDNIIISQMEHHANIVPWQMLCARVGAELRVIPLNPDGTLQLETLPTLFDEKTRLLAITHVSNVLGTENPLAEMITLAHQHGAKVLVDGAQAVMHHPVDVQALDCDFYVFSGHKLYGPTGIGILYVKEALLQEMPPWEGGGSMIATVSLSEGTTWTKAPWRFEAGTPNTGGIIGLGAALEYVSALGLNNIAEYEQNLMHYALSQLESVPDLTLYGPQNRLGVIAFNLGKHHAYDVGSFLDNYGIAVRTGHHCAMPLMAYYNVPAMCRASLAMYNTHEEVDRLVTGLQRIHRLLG
Kind of assay: native MS; CyaY added to SufS in the absence of SufE, with or without 1 mM DTT; both purified.

Assay [2] has as its target T1, SufS, cysteine desulfurase of the SUF system (E. coli). In words: native MS; 8-fold excess of CyaY added to equimolar IscS and SufS (8 uM each, 4 uM dimeric species); both purified.

B1: CyaY, the frataxin homolog of Escherichia coli (protein, UniProt P27838 1-106)
chain: MNDSEFHRLADQLWLTIEERLDDWDGDSDIDCEINGGVLTITFENGSKIIINRQEPLHQVWLATKQGGYHFDLKGDEWICDRSGETFWDLLEQAATQQAGETVSFR
For the molecule B1, the binding entry in assay [1] and in assay [2] was “binds weakly” throughout.
